This note sets out measurements from patent US20160159914A1.

The chains behind the UniProt entries cited, without tags or fusion partners. Residues count along the entry.
UniProt Q96F46, residues 33-320: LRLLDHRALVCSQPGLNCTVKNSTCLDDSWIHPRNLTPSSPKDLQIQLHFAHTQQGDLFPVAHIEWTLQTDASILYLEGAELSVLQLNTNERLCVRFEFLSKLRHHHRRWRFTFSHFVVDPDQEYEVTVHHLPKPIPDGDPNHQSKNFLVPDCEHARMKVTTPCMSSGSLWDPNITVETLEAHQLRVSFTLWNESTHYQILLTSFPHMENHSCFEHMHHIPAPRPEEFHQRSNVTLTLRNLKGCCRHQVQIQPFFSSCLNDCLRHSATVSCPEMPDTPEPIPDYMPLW
UniProt Q16552, residues 24-155: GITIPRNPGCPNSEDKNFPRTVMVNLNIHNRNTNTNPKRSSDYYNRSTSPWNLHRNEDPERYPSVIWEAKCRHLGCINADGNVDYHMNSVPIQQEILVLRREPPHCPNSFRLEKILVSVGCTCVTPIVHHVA

The target of experiment [1] is IL-17RA-FC (R&D Systems) Catalog#177-IR (human) (UniProt Q96F46). The experiment can be described thus: AlphaScreen, His-tagged ligand with Fc-tagged receptor.
Experiment [2] has the same target. The experiment can be described thus: AlphaScreen, His-tagged ligand with Fc-tagged receptor (figure legend).
In experiment [3] the target is T1, IL-17RE-FC (Amgen) (UniProt Q8NFR9).
T1 sequence (looked up): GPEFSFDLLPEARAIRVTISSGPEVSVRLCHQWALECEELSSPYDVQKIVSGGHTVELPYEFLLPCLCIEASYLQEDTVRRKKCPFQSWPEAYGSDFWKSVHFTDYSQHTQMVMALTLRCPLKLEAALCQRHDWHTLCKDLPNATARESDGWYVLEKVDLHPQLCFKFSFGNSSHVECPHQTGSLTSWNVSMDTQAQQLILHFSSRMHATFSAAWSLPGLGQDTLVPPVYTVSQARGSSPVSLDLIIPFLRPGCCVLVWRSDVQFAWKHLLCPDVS
The experiment can be described thus: AlphaScreen, His-tagged ligand with Fc-tagged receptor.

For experiment [4], the target named is T1, IL-17RE-FC (Amgen). The experiment can be described thus: AlphaScreen, His-tagged ligand with Fc-tagged receptor (figure legend).

Results are given in words; binding and its absence hold for the method and conditions named. Some binding calls cover weakened binding; strength is not graded here. For some of these results: Where a sequence is shown, tags or fusion partners need not be part of it.

As to “IL-17A-His (Amgen) (from UniProt Q16552 24-155) (ligand)”, the binding entry in experiment [1] and in experiment [2] was “binds” throughout.

B1: IL-17C-His-Avi (Amgen) (ligand, UniProt Q9P0M4 19-197, looked up, not shown: small tags and cut ends)
chain: HHDPSLRGHPHSHGTPHCYSAEELPLGQAPPHLLARGAKWGQALPVALVSSLEAASHRGRHERPSATTQCPVLRPEEVLEADTHQRSISPWRYRVDTDEDRYPQKLAFAECLCRGCIDARTGRETAALNSVRLLQSLLVLRRRPCSRDGSGLPTPGAFAFHTEFIHVPVGCTCVLPRSV
For the molecule B1, the binding result in experiment [3] and in experiment [4] was “binds” throughout.
